Results on 1 sequence are retold here after paper PMC2568806.

By UniProt entry, the sequences of proteins in these tests, tags left out.
UniProt P03372, whole entry: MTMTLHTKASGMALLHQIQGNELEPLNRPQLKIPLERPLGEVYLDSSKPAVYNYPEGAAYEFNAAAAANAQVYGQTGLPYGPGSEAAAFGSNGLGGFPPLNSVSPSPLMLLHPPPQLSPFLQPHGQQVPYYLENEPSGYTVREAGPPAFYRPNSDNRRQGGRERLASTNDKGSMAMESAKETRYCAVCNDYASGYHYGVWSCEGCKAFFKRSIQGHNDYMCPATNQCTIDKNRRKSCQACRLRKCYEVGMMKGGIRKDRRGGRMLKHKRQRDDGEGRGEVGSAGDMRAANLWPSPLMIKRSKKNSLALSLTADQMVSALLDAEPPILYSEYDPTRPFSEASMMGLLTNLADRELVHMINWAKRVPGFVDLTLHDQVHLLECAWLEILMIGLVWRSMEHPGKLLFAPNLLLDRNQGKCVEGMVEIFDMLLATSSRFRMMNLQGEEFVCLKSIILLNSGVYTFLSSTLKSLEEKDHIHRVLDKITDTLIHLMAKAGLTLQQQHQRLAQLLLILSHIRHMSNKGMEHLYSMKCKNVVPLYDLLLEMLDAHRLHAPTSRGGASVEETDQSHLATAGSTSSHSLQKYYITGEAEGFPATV

For this data set, the target named is recombinant estrogen receptor alpha (rERα) (UniProt P03372). Description: competition with a labelled probe. The following applies: HESC nuclear extract, did not efficiently compete for labeled PCNA-ERE1; 25 mM Tris-HCl pH 8.0, 50 mM KCl, 6.25 mM MgCl2, 10% glycerol, 0.5 mM DTT; 5 µg HESC nuclear extract + 170 nM rERα; 5% acrylamide gel in TBE; temperature not stated; commercial protein; label: unlabeled competitor.

Construct, isoform or probe ends are uncertain for at least one entry. The comparison behind a weaker result is the experiment's own reference, which may not be listed here.

Consider “GGGAGTTTGTTTTTTGCCATATTTAACATTG (double strand) [PCNA-ERE1mut]”, for which the binding result was “binds more weakly”.
